The values that follow come from BindingDB's records for doi:10.1016/s0014-2999(96)00840-0 (Hoechst Marion Roussel, 1996).

By UniProt entry, the sequences of proteins in these tests, tags left out. Chains listed by the source or under a name are the forms on record and can include a tag or linker.
UniProt P28223, whole entry: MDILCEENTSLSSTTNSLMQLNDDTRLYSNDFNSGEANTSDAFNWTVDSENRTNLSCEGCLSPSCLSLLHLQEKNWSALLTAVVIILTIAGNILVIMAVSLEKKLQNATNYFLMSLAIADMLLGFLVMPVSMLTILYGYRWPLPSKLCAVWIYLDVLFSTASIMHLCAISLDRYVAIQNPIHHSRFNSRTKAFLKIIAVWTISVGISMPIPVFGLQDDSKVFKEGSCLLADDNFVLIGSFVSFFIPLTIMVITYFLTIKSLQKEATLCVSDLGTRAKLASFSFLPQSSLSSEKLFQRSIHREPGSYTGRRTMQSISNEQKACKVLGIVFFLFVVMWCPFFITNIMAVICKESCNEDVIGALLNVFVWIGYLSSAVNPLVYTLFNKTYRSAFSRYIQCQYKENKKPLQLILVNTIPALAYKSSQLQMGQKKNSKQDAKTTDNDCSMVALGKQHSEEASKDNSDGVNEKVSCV
UniProt P14842, whole entry: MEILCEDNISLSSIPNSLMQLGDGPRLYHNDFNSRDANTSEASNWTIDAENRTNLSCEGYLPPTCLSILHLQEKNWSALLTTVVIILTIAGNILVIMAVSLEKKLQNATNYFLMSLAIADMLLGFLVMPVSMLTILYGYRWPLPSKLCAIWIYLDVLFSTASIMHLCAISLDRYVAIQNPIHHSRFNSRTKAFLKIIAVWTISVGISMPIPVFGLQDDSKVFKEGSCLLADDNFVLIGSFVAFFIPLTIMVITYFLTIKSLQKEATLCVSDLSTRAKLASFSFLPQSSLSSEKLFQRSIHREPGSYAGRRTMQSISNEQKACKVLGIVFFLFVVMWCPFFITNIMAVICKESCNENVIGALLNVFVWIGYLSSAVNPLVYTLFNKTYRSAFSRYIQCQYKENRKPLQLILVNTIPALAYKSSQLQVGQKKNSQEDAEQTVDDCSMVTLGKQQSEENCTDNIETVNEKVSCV
UniProt P35462, as listed by the source: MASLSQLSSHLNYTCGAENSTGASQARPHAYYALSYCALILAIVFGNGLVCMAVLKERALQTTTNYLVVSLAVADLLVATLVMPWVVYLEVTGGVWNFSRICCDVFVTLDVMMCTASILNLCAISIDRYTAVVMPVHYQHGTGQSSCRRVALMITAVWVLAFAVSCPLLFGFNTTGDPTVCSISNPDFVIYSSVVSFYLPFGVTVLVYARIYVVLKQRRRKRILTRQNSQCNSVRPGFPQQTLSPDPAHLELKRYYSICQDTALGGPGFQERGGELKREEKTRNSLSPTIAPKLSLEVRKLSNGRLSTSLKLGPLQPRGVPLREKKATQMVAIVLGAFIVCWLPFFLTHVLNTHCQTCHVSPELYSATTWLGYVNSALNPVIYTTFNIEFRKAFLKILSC

Experiment [1] has as its target 5-hydroxytryptamine receptor 2A (Homo sapiens, UniProt P28223).
The target in experiment [2] is 5-hydroxytryptamine receptor 2A (Rattus norvegicus, UniProt P14842).
The target in a further experiment is D(3) dopamine receptor (Homo sapiens, UniProt P35462).

As a reminder, the Ki is a measure of affinity in units of concentration, obtained from inhibition or displacement. Read a low Ki as a stronger hold on the target.

As to `COc1cc(C(C)=O)ccc1OCCCN1CCC(c2noc3cc(F)ccc23)CC1`, affinity in experiment [1] was put at a Ki of 5.6 nM.
Consider `OCCOCCN1CCN(C2=Nc3ccccc3Sc3ccccc32)CC1` [2-[2-(4-dibenzo[b,f][1,4]thiazepin-11-ylpiperazin-1-yl)ethoxy]ethanol], for which the Ki amounted to 185 nM in experiment [2] and 839 nM on D(3) dopamine receptor.
